Laboratory results reported in article PMC10127577.
These are yes or no findings as the source states them, for the method shown.

Biological target: CDTb protoxin (proCDTb), CDTb residues 43 to 876 (Clostridioides difficile) (UniProt O32739)
Assay: SEC; CDTb oligomerization assay: 500 μg proCDTb at 1 mg/mL, untreated or with trypsin 1:20 (wt/wt) at 37°C for 20 min, with buffer or 2-fold molar excess of Fab; Superdex 200 Increase 10/300 GL in 20 mM Tris pH 8, 100 mM NaCl, 6 mM CaCl2; both purified

## CDTb protoxin (proCDTb), CDTb residues 43 to 876 (from UniProt O32739 43-876)
  binding: no binding
